According to the supplement of paper PMC6078165:
The reference is the same well before dosing, and untreated signal decays as well.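 Labels refer to human fibroblasts, largely primary: uterine (C12385, HUF), lung (H6013), bone (Hs27A), adrenal (HADF), skin (WS1), plus mammary HMF and breast cancer-associated Hs343T. Cancer lines are basal-like or mesenchymal-like triple-negative breast cancer. The paper counts as hits responses shifting over 3x the replicate standard deviation. The tissue of the other fibroblasts is not given here.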

Test system: MDAMB468
Assay: relative JC-1 red fluorescence (viability) vs pre-drug, coculture with fibroblast (fraction); higher = more viable cancer cells
Protocol: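 JC-1 labelled TNBC cells cocultured 1:1 (1,500 cells each) with CellTrace Violet stained primary or stromal fibroblasts in 384-well plates in FluoroBrite medium, treated with one of 42 anticancer drugs at 0.1, 1, 10 or 100 uM. JC-1 red fluorescence (mitochondrial integrity in cancer cells only) was read by plate reader every 8 h for 72 h. Values are normalised to each well's pre-drug value. The stock of one drug was tenfold lower, so its dose labels may be too high.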

Nc1ncn([C@@H]2O[C@H](CO)[C@@H](O)[C@H]2O)c(=O)n1 [Azacitidine]
relative JC-1 red fluorescence
Details | 8 h | 16 h | 24 h | 32 h | 40 h | 48 h | 56 h | 64 h | 72 h
0.1 µM, coculture fibroblast: C12385 | 0.8463 | 0.862 | 0.872 | 0.859 | 0.837 | 0.884 | 0.872 | 0.887 | 0.909
0.1 µM, coculture fibroblast: H6013 | 0.876 | 0.883 | 0.8503 | 0.831 | 0.835 | 0.8583 | 0.854 | 0.8518 | 0.8086
0.1 µM, coculture fibroblast: H6019 | 0.859 | 0.867 | 0.855 | 0.835 | 0.818 | 0.842 | 0.801 | 0.789 | 0.772
0.1 µM, coculture fibroblast: H6076 | 0.9199 | 0.956 | 0.916 | 0.927 | 0.872 | 0.87 | 0.8425 | 0.832 | 0.8657
0.1 µM, coculture fibroblast: H6231 | 0.785 | 0.873 | 0.817 | 0.828 | 0.757 | 0.743 | 0.7 | 0.689 | 0.694
0.1 µM, coculture fibroblast: HADF | 0.8834 | 0.877 | 0.832 | 0.828 | 0.808 | 0.816 | 0.787 | 0.798 | 0.7501
0.1 µM, coculture fibroblast: HCFa | 0.8924 | 0.88 | 0.841 | 0.824 | 0.786 | 0.792 | 0.754 | 0.739 | 0.689
0.1 µM, coculture fibroblast: HCPF | 0.8568 | 0.9291 | 0.895 | 0.8956 | 0.842 | 0.827 | 0.779 | 0.776 | 0.778
0.1 µM, coculture fibroblast: HHSteC | 0.8968 | 0.875 | 0.844 | 0.81 | 0.788 | 0.801 | 0.758 | 0.7445 | 0.7001
0.1 µM, coculture fibroblast: HMF | 0.851 | 0.943 | 0.891 | 0.8855 | 0.80315 | 0.7942 | 0.76 | 0.746 | 0.747
0.1 µM, coculture fibroblast: HPFa | 0.872 | 0.8592 | 0.827 | 0.762 | 0.74 | 0.749 | 0.698 | 0.684 | 0.606
0.1 µM, coculture fibroblast: HUF | 0.8835 | 0.852 | 0.834 | 0.781 | 0.752 | 0.748 | 0.704 | 0.704 | 0.699
0.1 µM, coculture fibroblast: Hs5 | 0.9826 | 0.96155 | 0.954 | 0.936 | 0.885 | 0.862 | 0.828 | 0.804 | 0.832
0.1 µM, coculture fibroblast: Hs27A | 0.857 | 0.918 | 0.874 | 0.876 | 0.849 | 0.86 | 0.843 | 0.844 | 0.786
0.1 µM, coculture fibroblast: Hs343T | 0.8822 | 0.9258 | 0.8731 | 0.863 | 0.786 | 0.774 | 0.731 | 0.716 | 0.717
0.1 µM, coculture fibroblast: WS1 | 0.87 | 0.855 | 0.843 | 0.82 | 0.808 | 0.821 | 0.82 | 0.833 | 0.849
1 µM, coculture fibroblast: C12385 | 0.881 | 0.7802 | 0.763 | 0.697 | 0.66 | 0.648 | 0.609 | 0.587 | 0.581
1 µM, coculture fibroblast: H6013 | 0.872 | 0.834 | 0.792 | 0.767 | 0.755 | 0.764 | 0.737 | 0.728 | 0.676
1 µM, coculture fibroblast: H6019 | 0.8185 | 0.816 | 0.786 | 0.734 | 0.702 | 0.69 | 0.633 | 0.609 | 0.586
1 µM, coculture fibroblast: H6076 | 0.892 | 0.871 | 0.818 | 0.826 | 0.752 | 0.745 | 0.717 | 0.699 | 0.759
1 µM, coculture fibroblast: H6231 | 0.856 | 0.943 | 0.834 | 0.831 | 0.773 | 0.754 | 0.708 | 0.687 | 0.678
1 µM, coculture fibroblast: HADF | 0.8768 | 0.80089 | 0.7331 | 0.725 | 0.6587 | 0.6552 | 0.60198 | 0.5765 | 0.527
1 µM, coculture fibroblast: HCFa | 0.855 | 0.8 | 0.721 | 0.681 | 0.609 | 0.585 | 0.532 | 0.496 | 0.4419
1 µM, coculture fibroblast: HCPF | 0.8794 | 0.87 | 0.8108 | 0.81 | 0.724 | 0.708 | 0.667 | 0.673 | 0.671
1 µM, coculture fibroblast: HHSteC | 0.904 | 0.8659 | 0.811 | 0.768 | 0.738 | 0.743 | 0.666 | 0.637 | 0.572
1 µM, coculture fibroblast: HMF | 0.8304 | 0.913 | 0.837 | 0.82 | 0.7512 | 0.73 | 0.6756 | 0.66 | 0.655
1 µM, coculture fibroblast: HPFa | 0.919 | 0.841 | 0.792 | 0.737 | 0.71 | 0.695 | 0.633 | 0.59682 | 0.5119
1 µM, coculture fibroblast: HUF | 0.917 | 0.805 | 0.742 | 0.683 | 0.637 | 0.605 | 0.552 | 0.532 | 0.515
1 µM, coculture fibroblast: Hs5 | 0.907 | 0.9074 | 0.8446 | 0.8068 | 0.735 | 0.707 | 0.679 | 0.648 | 0.692
1 µM, coculture fibroblast: Hs27A | 0.8488 | 0.7644 | 0.702 | 0.695 | 0.638 | 0.619 | 0.576 | 0.544 | 0.496
1 µM, coculture fibroblast: Hs343T | 0.848 | 0.863 | 0.848 | 0.86 | 0.771 | 0.761 | 0.716 | 0.721 | 0.735
1 µM, coculture fibroblast: WS1 | 0.836 | 0.76 | 0.735 | 0.697 | 0.669 | 0.654 | 0.633 | 0.613 | –
